Assay results: patent publication US20230357395A1
Residue numbers refer to the chain shown, from its start. No constants are given. Whether binding was seen depends on the method and setting. Some results given as binding are weak or reduced against the parent protein; the word gives no strength. Blank lines part the entries; values can stand above or below the binder they belong to.

Sequences of proteins named here, by UniProt entry; tags and fusion partners are left off. Residues count along the entry.
UniProt P01850, residues 1-129: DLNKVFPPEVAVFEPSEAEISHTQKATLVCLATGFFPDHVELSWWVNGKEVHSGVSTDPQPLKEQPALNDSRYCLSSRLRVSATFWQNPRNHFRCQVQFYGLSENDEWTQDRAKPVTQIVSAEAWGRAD

Key:
[1] = biological target: human TRBC1 (hTRBC1), construct BIM0444 (human) (UniProt P01850); assay: ELISA, antibody coated at 1 ug/mL, hTRBC1 BIM0444 titrated 100 nM to 6.4 pM
[2] = biological target: human TRBC1 (hTRBC1), construct BIM0444 (human) (UniProt P01850); assay: ELISA (FIG. 7)
[3] = biological target: human TRBC1 (hTRBC1), construct BIM0443 (human) (UniProt P01850); assay: SPR (BIAcore T200)
[4] = biological target: human TRBC1 (hTRBC1), construct BIM0444 (human) (UniProt P01850); assay: Octet (BLI), hTRBC1 BIM0444 on Protein A biosensors, Fab 50 nM to 0.78 nM
[5] = biological target: human TRBC1 (hTRBC1), construct BIM0444 (human) (UniProt P01850); assay: Octet (FIG. 8)

B3: BKM0194 (single arm) (antibody, V domains shown)
VH: QVQLVQSGAEVKKPGSSVKVSCKASGYTFTGYVMHWVRQAPGQGLEWMGFIIPIFGTANYAQKFQGRVTITSDKSTTTAYMELSSLRSEDTAVYYCARGAGYNFDGAYRFFDFWGQGTLVTVSS
VL: DVVMTQSPLSLPVTLGQPASISCRSSQRLVHSGGNTYLHWYQQRPGQSPRLLIYRVSNRFPGVPDRFSGSGSGTDFTLKISRVEAEDVGVYFCSQSTHVPYTFGGGTKVEIK
- binding [3]: binds

B5: BKM0195 (single arm) (antibody, V domains shown)
VH: B3 VH
VL: B3 VL with G33N, N35S
- binding [3]: binds

B7: JOVI.1 Fab BIM0446 (Fab, V domains shown)
VH: EVRLQQSGPDLIKPGASVKMSCKASGYTFTGYVMHWVKQRPGQGLEWIGFINPYNDDIQSNERFRGKATLTSDKSSTTAYMELSSLTSEDSAVYYCARGAGYNFDGAYRFFDFWGQGTTLTVSS
VL: B3 VL with T14S, Q17D, P18Q, G33N, Q42L, R44K, R50K, V88L, V90I, V109L
- binding [4]: binds
- binding [5]: binds

B8: BKM0193 (single arm) (antibody, V domains shown)
VH: B3 VH
VL: B3 VL with G33N, G34A, T36A
- binding [3]: binds

The next lines start with the values.

- binding [1]: binds
- binding [2]: binds
B1: JOVI.1 anti-TRBC1 mAb (bivalent) (antibody, V domains shown)
VH: B7 VH
VL: B3 VL with T14S, Q17D, P18Q, G33N, Q42L, R44K, R50K, V88L, V90I, V109L

- binding [3]: binds
B2: BKM0191 (single arm) (antibody, V domains shown)
VH: B3 VH
VL: B3 VL with G33N, G34A

- binding [3]: binds
B4: BKM0192 (single arm) (antibody, V domains shown)
VH: B3 VH
VL: B3 VL with G33N, T36A

- binding [4]: binds
- binding [5]: binds
B6: humanized JOVI.1 Fab BIM0460 (Fab, V domains shown)
VH: QVQLVQSGAEVKKPGSSVKVSCKASGYTFTGYVMHWVRQAPGQGLEWMGFINPYNDDIQSNERFRGRVTITSDKSTTTAYMELSSLRSEDTAVYYCARGAGYNFDGAYRFFDFWGQGTLVTVSS
VL: B3 VL with G33N

- binding [3]: binds
B9: BKM0196 (single arm) (antibody, V domains shown)
VH: B3 VH
VL: B3 VL with N35S
